Assay results published in publication PMC12390935.
Where two headings read alike, the source gives them in different places. Results are given in words; binding and its absence hold for the method and conditions named. Binding seen in cells or lysates may run through a third protein. Here binding means that the protein was enriched with, or labelled near, the bait; the list need not be complete. For part of these data: A no says only that the protein was not detected with the bait.

Amino acid sequences for entries named in this document (tags omitted). A change or cut given only in a name is not applied to a line headed by its entry. Chains listed by the source or under a name are the forms on record and can include a tag or linker. Residues count along the entry.
UniProt Q9UM07: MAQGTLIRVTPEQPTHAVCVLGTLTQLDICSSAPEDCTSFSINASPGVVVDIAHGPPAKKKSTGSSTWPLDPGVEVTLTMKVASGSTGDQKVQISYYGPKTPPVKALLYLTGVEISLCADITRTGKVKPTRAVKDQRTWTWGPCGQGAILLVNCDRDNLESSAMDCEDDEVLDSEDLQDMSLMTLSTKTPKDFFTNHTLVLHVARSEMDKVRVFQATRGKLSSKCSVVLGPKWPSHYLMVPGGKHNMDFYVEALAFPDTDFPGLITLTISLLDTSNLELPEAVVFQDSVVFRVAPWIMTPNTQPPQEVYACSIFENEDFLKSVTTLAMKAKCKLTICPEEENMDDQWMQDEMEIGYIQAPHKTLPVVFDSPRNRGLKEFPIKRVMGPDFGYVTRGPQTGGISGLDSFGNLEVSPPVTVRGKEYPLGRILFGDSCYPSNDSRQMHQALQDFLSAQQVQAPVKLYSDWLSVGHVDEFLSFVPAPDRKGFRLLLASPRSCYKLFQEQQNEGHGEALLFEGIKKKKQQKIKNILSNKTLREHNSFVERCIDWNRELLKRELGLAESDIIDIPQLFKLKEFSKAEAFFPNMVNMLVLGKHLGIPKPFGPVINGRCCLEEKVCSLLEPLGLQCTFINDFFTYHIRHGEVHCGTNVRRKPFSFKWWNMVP
GST-PAD4-N (N-terminal half of PAD4, aa 1-293, fused to glutathione S-transferase): residues 1-293 of Q9UM07
GST-PAD4-C (C-terminal half of PAD4, aa 294-600, fused to glutathione S-transferase): residues 294-600 of Q9UM07
UniProt P47756: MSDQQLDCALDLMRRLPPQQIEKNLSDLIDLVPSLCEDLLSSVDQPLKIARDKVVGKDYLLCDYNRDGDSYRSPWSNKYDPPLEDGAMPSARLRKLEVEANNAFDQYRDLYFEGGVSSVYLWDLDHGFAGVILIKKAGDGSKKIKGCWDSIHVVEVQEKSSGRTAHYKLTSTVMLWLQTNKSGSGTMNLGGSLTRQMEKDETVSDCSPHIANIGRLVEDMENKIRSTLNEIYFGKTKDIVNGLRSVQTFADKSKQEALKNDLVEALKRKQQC
UniProt P12814: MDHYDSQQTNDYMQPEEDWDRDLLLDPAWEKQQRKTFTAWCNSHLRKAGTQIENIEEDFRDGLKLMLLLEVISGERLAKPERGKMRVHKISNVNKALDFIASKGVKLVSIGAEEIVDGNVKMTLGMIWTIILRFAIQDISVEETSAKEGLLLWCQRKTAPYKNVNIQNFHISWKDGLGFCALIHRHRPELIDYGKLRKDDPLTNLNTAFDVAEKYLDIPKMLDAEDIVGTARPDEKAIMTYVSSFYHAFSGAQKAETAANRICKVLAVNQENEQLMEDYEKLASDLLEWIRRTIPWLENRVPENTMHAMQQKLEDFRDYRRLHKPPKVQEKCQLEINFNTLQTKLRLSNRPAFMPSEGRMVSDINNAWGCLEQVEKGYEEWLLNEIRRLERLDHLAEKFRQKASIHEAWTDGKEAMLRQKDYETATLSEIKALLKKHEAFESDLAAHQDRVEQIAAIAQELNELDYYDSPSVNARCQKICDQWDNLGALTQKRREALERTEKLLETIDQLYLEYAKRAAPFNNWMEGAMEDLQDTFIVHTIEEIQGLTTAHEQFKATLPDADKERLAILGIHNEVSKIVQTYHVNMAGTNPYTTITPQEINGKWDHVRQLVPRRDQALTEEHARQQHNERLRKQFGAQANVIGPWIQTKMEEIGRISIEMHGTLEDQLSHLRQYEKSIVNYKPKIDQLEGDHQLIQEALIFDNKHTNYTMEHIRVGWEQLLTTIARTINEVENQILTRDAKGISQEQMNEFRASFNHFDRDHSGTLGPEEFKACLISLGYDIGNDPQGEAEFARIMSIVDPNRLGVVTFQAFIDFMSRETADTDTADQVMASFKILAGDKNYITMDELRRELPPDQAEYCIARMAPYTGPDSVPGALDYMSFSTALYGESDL
UniProt O75923: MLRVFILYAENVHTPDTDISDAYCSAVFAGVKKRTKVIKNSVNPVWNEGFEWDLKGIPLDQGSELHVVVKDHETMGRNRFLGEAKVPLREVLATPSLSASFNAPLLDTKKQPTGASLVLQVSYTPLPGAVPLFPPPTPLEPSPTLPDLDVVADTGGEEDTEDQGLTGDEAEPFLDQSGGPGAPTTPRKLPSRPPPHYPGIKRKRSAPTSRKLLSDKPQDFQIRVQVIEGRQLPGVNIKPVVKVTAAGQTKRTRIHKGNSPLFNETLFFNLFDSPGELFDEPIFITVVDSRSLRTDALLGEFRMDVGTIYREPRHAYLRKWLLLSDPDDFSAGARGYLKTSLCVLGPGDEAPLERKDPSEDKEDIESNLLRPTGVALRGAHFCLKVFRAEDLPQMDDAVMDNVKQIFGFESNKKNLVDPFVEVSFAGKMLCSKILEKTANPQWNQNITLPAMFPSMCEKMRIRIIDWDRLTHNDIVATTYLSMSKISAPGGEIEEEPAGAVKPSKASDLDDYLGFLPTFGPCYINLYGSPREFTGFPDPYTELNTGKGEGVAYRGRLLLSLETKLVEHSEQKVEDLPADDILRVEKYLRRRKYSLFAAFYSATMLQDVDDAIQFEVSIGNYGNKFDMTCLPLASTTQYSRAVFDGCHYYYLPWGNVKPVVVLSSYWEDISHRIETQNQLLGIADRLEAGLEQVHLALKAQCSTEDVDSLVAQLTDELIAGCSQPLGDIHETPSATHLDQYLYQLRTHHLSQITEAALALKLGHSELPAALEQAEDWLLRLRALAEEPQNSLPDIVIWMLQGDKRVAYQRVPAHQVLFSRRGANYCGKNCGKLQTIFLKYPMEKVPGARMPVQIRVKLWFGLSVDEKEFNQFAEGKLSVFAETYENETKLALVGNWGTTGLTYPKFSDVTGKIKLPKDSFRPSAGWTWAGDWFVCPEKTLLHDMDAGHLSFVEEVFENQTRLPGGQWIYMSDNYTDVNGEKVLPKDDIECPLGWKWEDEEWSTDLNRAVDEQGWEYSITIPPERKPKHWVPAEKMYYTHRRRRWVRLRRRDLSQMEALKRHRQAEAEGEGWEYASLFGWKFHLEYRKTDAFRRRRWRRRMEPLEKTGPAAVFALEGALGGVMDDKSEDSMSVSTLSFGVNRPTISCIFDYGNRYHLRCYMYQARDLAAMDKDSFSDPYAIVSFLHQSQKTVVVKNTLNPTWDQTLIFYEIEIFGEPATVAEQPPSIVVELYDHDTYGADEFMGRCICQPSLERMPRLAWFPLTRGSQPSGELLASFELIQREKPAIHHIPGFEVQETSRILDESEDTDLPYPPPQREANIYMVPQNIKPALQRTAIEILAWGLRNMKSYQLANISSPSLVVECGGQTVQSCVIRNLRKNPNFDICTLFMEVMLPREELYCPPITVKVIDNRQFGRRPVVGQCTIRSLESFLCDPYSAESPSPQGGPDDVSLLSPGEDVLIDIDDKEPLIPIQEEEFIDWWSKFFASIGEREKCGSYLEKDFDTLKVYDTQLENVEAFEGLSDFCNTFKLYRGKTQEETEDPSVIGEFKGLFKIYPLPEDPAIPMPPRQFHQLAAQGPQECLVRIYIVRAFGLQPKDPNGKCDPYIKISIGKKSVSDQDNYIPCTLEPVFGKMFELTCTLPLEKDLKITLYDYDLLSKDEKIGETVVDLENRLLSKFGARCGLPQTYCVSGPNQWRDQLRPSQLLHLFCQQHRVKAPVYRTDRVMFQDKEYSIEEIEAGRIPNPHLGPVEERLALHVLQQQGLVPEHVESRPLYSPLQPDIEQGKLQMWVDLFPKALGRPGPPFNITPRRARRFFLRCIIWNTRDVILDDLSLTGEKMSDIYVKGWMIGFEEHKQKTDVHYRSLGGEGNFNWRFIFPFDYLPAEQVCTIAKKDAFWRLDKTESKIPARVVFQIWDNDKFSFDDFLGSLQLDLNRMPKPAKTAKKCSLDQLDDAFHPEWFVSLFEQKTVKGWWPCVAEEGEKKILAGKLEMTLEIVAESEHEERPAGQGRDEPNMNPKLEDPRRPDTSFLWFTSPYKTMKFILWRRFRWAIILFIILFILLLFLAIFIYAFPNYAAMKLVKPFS
UniProt P06733: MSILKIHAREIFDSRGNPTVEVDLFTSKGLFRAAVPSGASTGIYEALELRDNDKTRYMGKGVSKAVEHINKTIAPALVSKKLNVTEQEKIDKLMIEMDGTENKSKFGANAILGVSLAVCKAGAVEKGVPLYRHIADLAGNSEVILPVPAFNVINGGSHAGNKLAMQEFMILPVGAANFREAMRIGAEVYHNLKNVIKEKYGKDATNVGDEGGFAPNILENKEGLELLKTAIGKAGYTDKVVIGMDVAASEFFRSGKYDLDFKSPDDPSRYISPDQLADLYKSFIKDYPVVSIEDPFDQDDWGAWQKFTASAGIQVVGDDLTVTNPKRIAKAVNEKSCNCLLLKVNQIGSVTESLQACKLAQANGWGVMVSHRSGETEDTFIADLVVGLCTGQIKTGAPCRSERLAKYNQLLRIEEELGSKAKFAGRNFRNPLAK
UniProt P60660: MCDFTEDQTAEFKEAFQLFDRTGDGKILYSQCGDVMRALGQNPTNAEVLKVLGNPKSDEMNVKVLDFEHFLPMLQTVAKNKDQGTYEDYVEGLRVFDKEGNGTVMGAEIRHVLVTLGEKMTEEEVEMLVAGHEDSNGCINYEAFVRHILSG
UniProt P14598: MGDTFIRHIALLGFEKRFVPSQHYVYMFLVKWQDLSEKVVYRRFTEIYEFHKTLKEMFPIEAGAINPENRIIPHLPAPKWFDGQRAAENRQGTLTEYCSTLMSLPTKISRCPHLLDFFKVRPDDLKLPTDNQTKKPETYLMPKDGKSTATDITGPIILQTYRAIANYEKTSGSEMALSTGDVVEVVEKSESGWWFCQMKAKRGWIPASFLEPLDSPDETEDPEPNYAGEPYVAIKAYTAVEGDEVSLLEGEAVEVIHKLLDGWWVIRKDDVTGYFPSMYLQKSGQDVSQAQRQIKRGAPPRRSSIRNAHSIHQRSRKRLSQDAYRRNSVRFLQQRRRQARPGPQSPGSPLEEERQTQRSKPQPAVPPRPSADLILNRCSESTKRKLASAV
UniProt P68363: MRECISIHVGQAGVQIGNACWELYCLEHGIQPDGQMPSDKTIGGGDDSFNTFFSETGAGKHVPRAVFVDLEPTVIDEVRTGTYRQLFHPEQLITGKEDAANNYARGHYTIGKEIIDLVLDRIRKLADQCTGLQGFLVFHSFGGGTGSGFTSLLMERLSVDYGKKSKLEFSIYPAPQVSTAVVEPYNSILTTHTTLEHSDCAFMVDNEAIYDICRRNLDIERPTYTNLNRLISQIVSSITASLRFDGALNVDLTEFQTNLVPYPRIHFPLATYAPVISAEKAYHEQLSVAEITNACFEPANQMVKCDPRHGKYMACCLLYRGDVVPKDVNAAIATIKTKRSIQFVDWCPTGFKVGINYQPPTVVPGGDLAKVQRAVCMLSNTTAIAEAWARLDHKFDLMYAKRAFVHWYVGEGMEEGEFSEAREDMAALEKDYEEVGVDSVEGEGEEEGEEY

How the values were obtained:
[1] = target: protein arginine deiminase 4 (PAD4), endogenous in neutrophils (human (endogenous in neutrophils)) (UniProt Q9UM07); assay: affinity purification with mass spectrometry; anti-PAD4 immunoprecipitates (mAb OTI4H5; also a polyclonal and a human IgG4 anti-PAD4) from neutrophil lysates of patients with RA and healthy donors; 25 mM Tris/HCl pH 7.4, 150 mM NaCl, 1% Triton X-100; washes incl. 500 mM NaCl; on-bead trypsin digestion, LC-MS/MS; proteins of a control precipitate without antibody subtracted
[2] = target: GST-PAD4-C (C-terminal half of PAD4, aa 294-600, fused to glutathione S-transferase) (human) (UniProt Q9UM07); assay: affinity purification with mass spectrometry; GST pull-down: GST-PAD4-N, GST-PAD4-C or GST alone on glutathione agarose beads, incubated with RA neutrophil lysates at 4 °C overnight; on-bead trypsin digestion, LC-MS/MS; only the target purified
[3] = target: HA-tagged PAD4 (full length), expressed in 293T cells (human) (UniProt Q9UM07); assay: affinity purification with mass spectrometry; anti-PAD4 or anti-HA (12CA5) immunoprecipitates from lysates of 293T cells transfected with or without HA-tagged PAD4; LC-MS/MS
[4] = target: GST-PAD4-N (N-terminal half of PAD4, aa 1-293, fused to glutathione S-transferase) (human) (UniProt Q9UM07); assay: affinity purification with mass spectrometry; GST pull-down: GST-PAD4-N, GST-PAD4-C or GST alone on glutathione agarose beads, incubated with RA neutrophil lysates at 4 °C overnight; on-bead trypsin digestion, LC-MS/MS; only the target purified
[5] = target: protein arginine deiminase 4 (PAD4), endogenous in neutrophils (human (endogenous in neutrophils)) (UniProt Q9UM07); assay: affinity purification with mass spectrometry; anti-PAD4 immunoprecipitates (mAb OTI4H5; also a polyclonal and a human IgG4 anti-PAD4) from neutrophil lysates of patients with RA and healthy donors; 25 mM Tris/HCl pH 7.4, 150 mM NaCl, 1% Triton X-100; washes incl. 500 mM NaCl; on-bead trypsin digestion, LC-MS/MS; proteins of a control precipitate without antibody subtracted; remark: listed apart in the source

Row | binding [1] | Molecule | further results
1 | binds | F-actin-capping protein subunit beta (CAPZB), endogenous in neutrophils (from UniProt P47756 1-272) | –
2 | binds | alpha-actinin-1 (ACTN1), endogenous in neutrophils (from UniProt P12814 1-892) | –
3 | binds | dysferlin (DYSF), endogenous in neutrophils (from UniProt O75923 1-2080) | –
4 | binds | enolase-1 (ENO1), endogenous in neutrophils (from UniProt P06733 1-434) (enzyme) | binding [2]: binds
5 | binds | filamin (FLNA), endogenous in neutrophils (from UniProt P21333 1-2647) | –
6 | binds | myosin light chain 6 (MYL6), endogenous in neutrophils (from UniProt P60660 1-151) | –
7 | – | myosin-9, endogenous in 293T cells (from UniProt P35579 1-1960) | binding [3]: binds
8 | binds | neutrophil cytosolic factor-1 (NCF1), endogenous in neutrophils (from UniProt P14598 1-390) | binding [2]: no binding; binding [4]: binds
9 | binds | tropomyosin (TPM2), endogenous in neutrophils (from UniProt P07951-2) | –
10 | binds | tropomyosin (TPM3), endogenous in neutrophils (from UniProt P06753-2) | –
11 | binds | tubulin (TUBA1B), endogenous in neutrophils (from UniProt P68363 1-451) | –
12 | binds | vinculin (VCL), endogenous in neutrophils (from UniProt P18206-2) | binding [2]: binds
13 | – | myosin light chain 12A (MYL12A), endogenous in neutrophils (protein, UniProt P19105 1-171) MSSKRTKTKTKKRPQRATSNVFAMFDQSQIQEFKEAFNMIDQNRDGFIDKEDLHDMLASLGKNPTDEYLDAMMNEAPGPINFTMFLTMFGEKLNGTDPEDVIRNAFACFDEEATGTIQEDYLRELLTTMGDRFTDEEVDELYREAPIDKKGNFNYIEFTRILKHGAKDKDD | binding [5]: binds
14 | – | stomatin (STOM), endogenous in neutrophils (protein, UniProt P27105 1-288) MAEKRHTRDSEAQRLPDSFKDSPSKGLGPCGWILVAFSFLFTVITFPISIWMCIKIIKEYERAIIFRLGRILQGGAKGPGLFFILPCTDSFIKVDMRTISFDIPPQEILTKDSVTISVDGVVYYRVQNATLAVANITNADSATRLLAQTTLRNVLGTKNLSQILSDREEIAHNMQSTLDDATDAWGIKVERVEIKDVKLPVQLQRAMAAEAEASREARAKVIAAEGEMNASRALKEASMVITESPAALQLRYLQTLTTIAAEKNSTIVFPLPIDMLQGIIGAKHSHLG | binding [5]: binds
15 | – | grancalcin (GCA), endogenous in neutrophils (protein, UniProt P28676 1-217) MAYPGYGGGFGNFSIQVPGMQMGQPVPETGPAILLDGYSGPAYSDTYSSAGDSVYTYFSAVAGQDGEVDAEELQRCLTQSGINGTYSPFSLETCRIMIAMLDRDHTGKMGFNAFKELWAALNAWKENFMTVDQDGSGTVEHHELRQAIGLMGYRLSPQTLTTIVKRYSKNGRIFFDDYVACCVKLRALTDFFRKRDHLQQGSANFIYDDFLQGTMAI | binding [2]: binds; binding [5]: binds
16 | – | plastin-2 (LCP1), endogenous in neutrophils (protein, UniProt P13796 1-627) MARGSVSDEEMMELREAFAKVDTDGNGYISFNELNDLFKAACLPLPGYRVREITENLMATGDLDQDGRISFDEFIKIFHGLKSTDVAKTFRKAINKKEGICAIGGTSEQSSVGTQHSYSEEEKYAFVNWINKALENDPDCRHVIPMNPNTNDLFNAVGDGIVLCKMINLSVPDTIDERTINKKKLTPFTIQENLNLALNSASAIGCHVVNIGAEDLKEGKPYLVLGLLWQVIKIGLFADIELSRNEALIALLREGESLEDLMKLSPEELLLRWANYHLENAGCNKIGNFSTDIKDSKAYYHLLEQVAPKGDEEGVPAVVIDMSGLREKDDIQRAECMLQQAERLGCRQFVTATDVVRGNPKLNLAFIANLFNRYPALHKPENQDIDWGALEGETREERTFRNWMNSLGVNPRVNHLYSDLSDALVIFQLYEKIKVPVDWNRVNKPPYPKLGGNMKKLENCNYAVELGKNQAKFSLVGIGGQDLNEGNRTLTLALIWQLMRRYTLNILEEIGGGQKVNDDIIVNWVNETLREAKKSSSISSFKDPKISTSLPVLDLIDAIQPGSINYDLLKTENLNDDEKLNNAKYAISMARKIGARVYALPEDLVEVNPKMVMTVFACLMGKGMKRV | binding [5]: binds
